# Results reported in the supplement of paper PMC12067093, “Discovery and optimisation of a covalent ligand for TRIM25 and its application to targeted protein ubiquitination” (Chemical Science, 2025).
# Sequences of proteins named here, by UniProt entry; tags and fusion partners are left off. A change or cut given only in a name is not applied to a line headed by its entry.
# UniProt Q9UBV2: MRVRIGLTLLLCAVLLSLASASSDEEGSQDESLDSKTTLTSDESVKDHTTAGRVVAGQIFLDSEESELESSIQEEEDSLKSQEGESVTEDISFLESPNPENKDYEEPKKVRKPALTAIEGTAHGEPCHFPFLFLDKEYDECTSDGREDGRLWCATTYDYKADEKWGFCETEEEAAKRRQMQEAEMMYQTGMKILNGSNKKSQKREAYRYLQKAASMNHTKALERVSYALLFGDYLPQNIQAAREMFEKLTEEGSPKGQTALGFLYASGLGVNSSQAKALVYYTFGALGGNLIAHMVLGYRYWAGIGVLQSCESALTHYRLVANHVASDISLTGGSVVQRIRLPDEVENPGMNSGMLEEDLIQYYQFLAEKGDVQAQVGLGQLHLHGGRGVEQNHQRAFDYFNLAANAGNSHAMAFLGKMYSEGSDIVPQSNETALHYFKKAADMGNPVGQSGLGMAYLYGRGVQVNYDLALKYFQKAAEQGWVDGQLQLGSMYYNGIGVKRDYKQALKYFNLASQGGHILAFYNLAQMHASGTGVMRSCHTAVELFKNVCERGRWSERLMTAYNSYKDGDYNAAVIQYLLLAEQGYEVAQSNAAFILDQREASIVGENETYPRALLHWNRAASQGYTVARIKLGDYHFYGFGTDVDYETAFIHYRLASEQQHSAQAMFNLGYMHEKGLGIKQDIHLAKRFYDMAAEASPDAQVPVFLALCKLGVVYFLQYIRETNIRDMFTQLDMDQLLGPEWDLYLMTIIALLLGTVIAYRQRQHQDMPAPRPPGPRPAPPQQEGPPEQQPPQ
# UniProt Q15020: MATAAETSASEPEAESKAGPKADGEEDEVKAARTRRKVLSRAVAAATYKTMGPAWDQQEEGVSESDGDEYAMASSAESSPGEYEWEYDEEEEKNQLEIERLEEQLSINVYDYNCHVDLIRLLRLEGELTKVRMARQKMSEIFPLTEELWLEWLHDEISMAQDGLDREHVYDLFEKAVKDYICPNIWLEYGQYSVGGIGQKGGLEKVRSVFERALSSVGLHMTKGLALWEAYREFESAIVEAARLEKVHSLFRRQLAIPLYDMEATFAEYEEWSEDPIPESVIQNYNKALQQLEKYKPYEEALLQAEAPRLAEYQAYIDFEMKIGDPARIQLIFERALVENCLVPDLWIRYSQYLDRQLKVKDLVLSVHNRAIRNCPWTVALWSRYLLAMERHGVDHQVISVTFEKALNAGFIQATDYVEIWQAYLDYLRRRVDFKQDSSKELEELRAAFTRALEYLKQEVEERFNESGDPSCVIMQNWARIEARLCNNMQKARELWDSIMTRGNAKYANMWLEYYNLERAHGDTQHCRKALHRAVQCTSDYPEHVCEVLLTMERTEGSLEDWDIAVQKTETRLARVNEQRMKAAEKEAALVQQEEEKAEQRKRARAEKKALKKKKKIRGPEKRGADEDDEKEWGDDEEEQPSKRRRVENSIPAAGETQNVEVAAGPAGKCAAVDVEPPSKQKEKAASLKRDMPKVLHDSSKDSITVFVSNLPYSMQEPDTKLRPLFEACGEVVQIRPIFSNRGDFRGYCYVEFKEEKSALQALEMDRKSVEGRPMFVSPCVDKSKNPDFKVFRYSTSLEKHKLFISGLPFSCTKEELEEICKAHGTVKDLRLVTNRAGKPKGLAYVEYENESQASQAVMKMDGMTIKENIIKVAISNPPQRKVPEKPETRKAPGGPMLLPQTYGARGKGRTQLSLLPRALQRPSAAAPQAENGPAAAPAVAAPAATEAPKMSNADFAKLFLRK
# UniProt Q15436: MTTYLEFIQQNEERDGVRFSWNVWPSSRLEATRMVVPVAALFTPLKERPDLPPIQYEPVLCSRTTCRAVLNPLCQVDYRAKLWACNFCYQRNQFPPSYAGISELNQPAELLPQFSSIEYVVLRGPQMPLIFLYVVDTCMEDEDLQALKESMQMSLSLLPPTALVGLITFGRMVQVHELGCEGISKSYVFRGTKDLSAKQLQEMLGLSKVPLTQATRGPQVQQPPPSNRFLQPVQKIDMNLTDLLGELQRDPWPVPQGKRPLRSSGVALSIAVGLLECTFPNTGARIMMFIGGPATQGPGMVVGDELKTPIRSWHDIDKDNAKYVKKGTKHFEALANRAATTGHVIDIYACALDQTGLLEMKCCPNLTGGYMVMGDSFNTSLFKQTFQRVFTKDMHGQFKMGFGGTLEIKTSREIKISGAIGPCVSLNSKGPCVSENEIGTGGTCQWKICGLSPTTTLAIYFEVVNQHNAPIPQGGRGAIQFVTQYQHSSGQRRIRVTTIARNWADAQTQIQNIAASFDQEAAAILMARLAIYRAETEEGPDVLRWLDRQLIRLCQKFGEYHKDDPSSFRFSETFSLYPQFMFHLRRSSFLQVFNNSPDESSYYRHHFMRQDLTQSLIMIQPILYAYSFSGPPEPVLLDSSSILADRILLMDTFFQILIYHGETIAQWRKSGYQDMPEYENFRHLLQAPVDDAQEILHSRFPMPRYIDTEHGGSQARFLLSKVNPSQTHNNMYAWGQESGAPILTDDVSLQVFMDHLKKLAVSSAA
# UniProt O15027: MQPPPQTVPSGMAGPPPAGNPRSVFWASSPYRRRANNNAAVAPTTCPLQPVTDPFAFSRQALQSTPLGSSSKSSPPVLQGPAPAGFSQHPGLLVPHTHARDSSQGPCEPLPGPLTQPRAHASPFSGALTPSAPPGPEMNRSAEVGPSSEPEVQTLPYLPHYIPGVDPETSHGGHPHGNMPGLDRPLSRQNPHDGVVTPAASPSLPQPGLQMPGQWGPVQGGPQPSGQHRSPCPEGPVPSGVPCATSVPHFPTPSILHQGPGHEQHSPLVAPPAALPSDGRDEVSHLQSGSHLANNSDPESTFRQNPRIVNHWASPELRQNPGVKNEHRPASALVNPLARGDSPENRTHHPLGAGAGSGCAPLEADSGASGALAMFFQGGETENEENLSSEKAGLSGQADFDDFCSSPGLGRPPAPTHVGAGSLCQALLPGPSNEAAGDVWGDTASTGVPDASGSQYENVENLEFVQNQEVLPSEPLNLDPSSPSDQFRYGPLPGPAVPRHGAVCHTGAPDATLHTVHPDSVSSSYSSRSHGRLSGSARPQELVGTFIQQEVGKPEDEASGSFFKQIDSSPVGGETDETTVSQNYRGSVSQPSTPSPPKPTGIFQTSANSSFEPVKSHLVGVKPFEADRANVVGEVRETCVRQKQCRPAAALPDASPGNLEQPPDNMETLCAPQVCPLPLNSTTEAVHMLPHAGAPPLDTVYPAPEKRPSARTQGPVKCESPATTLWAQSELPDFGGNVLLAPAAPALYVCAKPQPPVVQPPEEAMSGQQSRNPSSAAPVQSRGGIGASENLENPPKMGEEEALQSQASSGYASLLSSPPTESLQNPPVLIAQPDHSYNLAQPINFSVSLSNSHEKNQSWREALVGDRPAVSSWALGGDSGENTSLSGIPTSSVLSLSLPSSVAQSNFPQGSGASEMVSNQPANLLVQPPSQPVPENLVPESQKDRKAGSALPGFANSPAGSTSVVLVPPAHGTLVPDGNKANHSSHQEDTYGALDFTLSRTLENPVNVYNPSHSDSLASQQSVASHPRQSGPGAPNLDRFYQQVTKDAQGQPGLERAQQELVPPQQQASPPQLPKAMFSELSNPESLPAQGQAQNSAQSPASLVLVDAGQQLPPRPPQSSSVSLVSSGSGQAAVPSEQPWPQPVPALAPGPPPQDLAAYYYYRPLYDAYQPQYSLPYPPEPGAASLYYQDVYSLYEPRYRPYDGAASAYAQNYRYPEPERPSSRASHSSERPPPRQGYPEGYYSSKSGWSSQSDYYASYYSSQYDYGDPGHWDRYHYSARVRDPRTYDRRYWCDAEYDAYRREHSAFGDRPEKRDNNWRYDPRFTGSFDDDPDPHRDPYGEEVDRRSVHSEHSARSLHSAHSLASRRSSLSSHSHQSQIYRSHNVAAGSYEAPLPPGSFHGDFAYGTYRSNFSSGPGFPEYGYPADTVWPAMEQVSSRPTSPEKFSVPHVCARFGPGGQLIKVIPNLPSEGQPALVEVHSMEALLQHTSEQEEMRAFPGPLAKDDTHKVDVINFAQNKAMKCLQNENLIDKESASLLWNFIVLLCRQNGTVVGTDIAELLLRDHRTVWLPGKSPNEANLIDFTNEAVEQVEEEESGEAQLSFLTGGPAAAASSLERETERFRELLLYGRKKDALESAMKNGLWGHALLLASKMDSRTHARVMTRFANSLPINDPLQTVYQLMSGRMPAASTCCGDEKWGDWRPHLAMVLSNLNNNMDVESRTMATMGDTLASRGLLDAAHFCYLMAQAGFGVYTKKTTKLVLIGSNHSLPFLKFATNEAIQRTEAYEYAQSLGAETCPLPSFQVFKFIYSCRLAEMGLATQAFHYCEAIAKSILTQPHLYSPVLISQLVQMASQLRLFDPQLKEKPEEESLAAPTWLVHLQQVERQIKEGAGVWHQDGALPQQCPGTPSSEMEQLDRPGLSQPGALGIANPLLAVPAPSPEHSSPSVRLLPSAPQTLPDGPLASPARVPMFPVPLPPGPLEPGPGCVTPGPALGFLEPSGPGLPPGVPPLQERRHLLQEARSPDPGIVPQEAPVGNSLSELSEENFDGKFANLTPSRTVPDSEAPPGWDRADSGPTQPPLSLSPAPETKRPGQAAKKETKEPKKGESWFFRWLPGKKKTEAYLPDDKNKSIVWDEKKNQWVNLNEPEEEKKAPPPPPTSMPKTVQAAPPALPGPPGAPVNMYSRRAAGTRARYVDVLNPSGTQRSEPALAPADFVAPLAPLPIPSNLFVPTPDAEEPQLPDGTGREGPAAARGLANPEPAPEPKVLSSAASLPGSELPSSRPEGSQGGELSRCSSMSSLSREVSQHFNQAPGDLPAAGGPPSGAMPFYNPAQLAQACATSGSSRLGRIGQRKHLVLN
# UniProt O94855: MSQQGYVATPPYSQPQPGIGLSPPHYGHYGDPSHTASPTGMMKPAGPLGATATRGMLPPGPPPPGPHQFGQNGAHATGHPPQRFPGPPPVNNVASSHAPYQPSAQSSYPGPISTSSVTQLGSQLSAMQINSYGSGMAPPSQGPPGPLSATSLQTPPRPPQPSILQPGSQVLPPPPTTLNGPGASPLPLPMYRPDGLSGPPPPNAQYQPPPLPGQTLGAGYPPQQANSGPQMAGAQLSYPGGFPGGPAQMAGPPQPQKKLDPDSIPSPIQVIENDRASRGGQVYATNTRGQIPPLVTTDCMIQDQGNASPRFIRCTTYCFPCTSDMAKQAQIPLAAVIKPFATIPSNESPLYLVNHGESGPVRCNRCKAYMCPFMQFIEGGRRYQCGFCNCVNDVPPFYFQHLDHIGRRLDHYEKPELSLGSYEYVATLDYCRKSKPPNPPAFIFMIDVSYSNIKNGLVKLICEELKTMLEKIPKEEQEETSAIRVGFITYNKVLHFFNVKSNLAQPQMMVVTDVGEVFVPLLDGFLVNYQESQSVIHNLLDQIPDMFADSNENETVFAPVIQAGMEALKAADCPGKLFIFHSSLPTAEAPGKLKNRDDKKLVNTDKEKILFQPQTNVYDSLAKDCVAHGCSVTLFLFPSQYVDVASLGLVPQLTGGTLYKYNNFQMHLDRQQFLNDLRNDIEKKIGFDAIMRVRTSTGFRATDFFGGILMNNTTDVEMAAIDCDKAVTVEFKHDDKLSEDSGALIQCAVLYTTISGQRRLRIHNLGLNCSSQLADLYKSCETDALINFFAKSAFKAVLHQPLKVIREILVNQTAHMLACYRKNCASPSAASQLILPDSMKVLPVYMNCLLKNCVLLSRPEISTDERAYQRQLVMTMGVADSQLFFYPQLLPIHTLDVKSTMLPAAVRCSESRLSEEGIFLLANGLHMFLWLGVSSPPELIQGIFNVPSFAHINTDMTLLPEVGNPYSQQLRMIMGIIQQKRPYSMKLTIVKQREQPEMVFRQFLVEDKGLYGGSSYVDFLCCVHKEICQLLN
# UniProt Q6UVJ0: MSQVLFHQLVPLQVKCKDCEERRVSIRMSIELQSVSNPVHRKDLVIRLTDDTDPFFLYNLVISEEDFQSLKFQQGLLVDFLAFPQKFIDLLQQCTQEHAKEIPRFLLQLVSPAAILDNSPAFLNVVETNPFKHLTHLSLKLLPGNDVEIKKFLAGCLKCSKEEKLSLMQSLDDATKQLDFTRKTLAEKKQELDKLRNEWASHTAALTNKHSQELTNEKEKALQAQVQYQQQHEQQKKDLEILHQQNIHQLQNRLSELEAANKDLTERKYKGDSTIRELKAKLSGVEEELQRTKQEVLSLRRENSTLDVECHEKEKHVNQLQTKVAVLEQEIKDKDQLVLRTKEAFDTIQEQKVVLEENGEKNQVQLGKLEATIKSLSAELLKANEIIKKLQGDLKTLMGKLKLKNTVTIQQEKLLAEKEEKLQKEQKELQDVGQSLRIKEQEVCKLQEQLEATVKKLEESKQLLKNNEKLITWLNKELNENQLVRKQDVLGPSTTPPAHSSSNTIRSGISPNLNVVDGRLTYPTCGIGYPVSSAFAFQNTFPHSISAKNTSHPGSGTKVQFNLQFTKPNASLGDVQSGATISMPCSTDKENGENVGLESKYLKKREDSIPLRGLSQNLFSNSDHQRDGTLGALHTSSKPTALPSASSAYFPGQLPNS
# The list shows a part of the results.
# Compound: CC1Cc2ccccc2N1C(=O)C1CCCN(C1)C(=O)CCl (mixture of isomers) [TRIM25 ligand 11 (diastereomer mixture)]
# Experiment: probe-labelled cysteine peptide fold change vs DMSO (competition) (log2 fold change); higher = less target engagement (more negative = stronger competition)
# Conditions: THP-1, incubation time: 4 h
# 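Also: competitive chemoproteomic profiling in live THP-1 cells with an iodoacetamide desthiobiotin (IA-DTB) probe, comparing probe-labelled peptide intensities in compound-treated cells against DMSO-treated controls.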
Target,probe-labelled cysteine peptide fold change (10 µM),probe-labelled cysteine peptide fold change (50 µM)
SEC24C_P53992_448_FQCCFCSCINDVPPQYFQHLDHTGKR (UniProt P53992),-0.0515,0.139
SEC62_Q99442_55_AVDCLLDSK (UniProt Q99442),-0.122,-0.249
SCRIB_Q14160_1082_DATHQEAVSALLRPCLELSLLVR (UniProt Q14160),0.24,-0.0877
SCLT1_Q96NL6_319_CNELENERYEAIVR (UniProt Q96NL6),0.0182,0.00647
SAMHD1_Q9Y3Z3_341_VCEVDNELR (UniProt Q9Y3Z3),0.0414,0.44
SDS_P20132_270_ILVEPACGAALAAVYSHVIQK (UniProt P20132),-0.0749,-0.128
SCCPDH_Q8NBX0_77_LGRPTLSSEVGIIICDIANPASLDEMAK (UniProt Q8NBX0),-0.0992,0.079
SEL1L_Q9UBV2_127_PALTAIEGTAHGEPCHFPFLFLDK (UniProt Q9UBV2),-0.0147,0.277
SART3_Q15020_114_LEEQLSINVYDYNCHVDLIR (UniProt Q15020),0.108,0.087
SELENOF_O60613_73_GCCQEEAQFETK (UniProt O60613),-0.00801,0.19
SEC23A_Q15436_88_LWACNFCYQR (UniProt Q15436),0.0643,0.249
SEC16A_O15027_1293_YWCDAEYDAYRR (UniProt O15027),-0.000498,-0.22
SEH1L_Q96EE3_77_VTWAHPEFGQVLASCSFDR (UniProt Q96EE3),0.357,0.437
SCIN_Q9Y6U3_619_LYGCSNK (UniProt Q9Y6U3),0.0224,0.0629
SEC16A_O15027_1293_YWCDAEYDAYR (UniProt O15027),-0.117,-0.311
SEC24D_O94855_1028_EICQLLN (UniProt O94855),-0.236,-0.0431
SATB1_Q01826_91_GTMLPVFCVVEHYENAIEYDCKEEHAEFVLVR (UniProt Q01826),-0.0302,-0.135
SART1_O43290_560_GAIVFNATSEFCR (UniProt O43290),-0.0108,0.0741
SEC61A1_P61619_13_FLEVIKPFCVILPEIQKPERK (UniProt P61619),-0.291,-0.191

Target,probe-labelled cysteine peptide fold change (10 µM),probe-labelled cysteine peptide fold change (50 µM)
SCFD2_Q8WU76_236_EECFAVGSLSQVIAADLANYAPAK (UniProt Q8WU76),-0.13,-0.0185
SEC13_P55735_299_ESVDGQWVCISDVNK (UniProt P55735),0.18,0.201
SEL1L_Q9UBV2_127_KPALTAIEGTAHGEPCHFPFLFLDK (UniProt Q9UBV2),0.095,0.19
SDHB_P21912_243+249_CHTIMNCTR (UniProt P21912),-0.0459,-0.14
SEPSECS_Q9HD40_431_GFMSHTNNYPCAYLNAASAIGMK (UniProt Q9HD40),0.0777,-0.101
SEC24D_O94855_848_VLPVYMNCLLK (UniProt O94855),-0.0545,0.0972
SCML2_Q9UQR0_324_EKPLPVICSTSAASLK (UniProt Q9UQR0),-0.0018,-0.148
SAPCD2_Q86UD0_46_GCVHLR (UniProt Q86UD0),-0.0698,0.204
SEL1L_Q9UBV2_539_SCHTAVELFK (UniProt Q9UBV2),0.21,-0.0684
SAP30_O75446_184_AQLVEIVGCHFR (UniProt O75446),-0.0276,-0.0231
SART3_Q15020_341_ALVENCLVPDLWIR (UniProt Q15020),0.138,-0.00676
SCLY_Q96I15_388_VLMASVGAACHSDHGDQPSPVLLSYGVPFDVAR (UniProt Q96I15),0.147,-0.232
SEC24D_O94855_819_EILVNQTAHMLACYR (UniProt O94855),-0.000863,0.141
SASS6_Q6UVJ0_310_ENSTLDVECHEK (UniProt Q6UVJ0),0.07,0.16
SATB1_Q01826_78_KGTMLPVFCVVEHYENAIEYDCK (UniProt Q01826),0.321,0.323
SAMHD1_Q9Y3Z3_80_NIRENEITGALLPCLDESR (UniProt Q9Y3Z3),-0.0562,-0.107
SASS6_Q6UVJ0_94_FIDLLQQCTQEHAK (UniProt Q6UVJ0),0.0471,0.0533
SDSL_Q96GA7_276_MLVEPACGAALAAIYSGLLR (UniProt Q96GA7),-0.186,0.128
SEC23A_Q15436_180_MVQVHELGCEGISK (UniProt Q15436),0.0868,0.0113
